# According to PubChem BioAssay AID2685 (National Center for Advancing Translational Sciences (NCATS), 2010):
# This is one part of the list. These are further read-outs of the screen, such as a control signal, another cell line or another target. No call is given for them. Most of these compounds were active or inconclusive in the main read-out, so they are no random draw. Words in brackets tell the shape of the fitted curve; partial curves, single points and poor fits give uncertain potencies.
# Experiment: qHTS Assay for Lipid Storage Modulators in Drosophila S3 Cells;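 for cell number change: cells counted by Cell Tracker Red CMTPX staining in the red channel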
# Details: BODIPY lipid droplet fluorescence, 18-24 h; for cell number change: measured here: cell count max response, cells fed with added oleic acid
# In short: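 Laser-scanning cytometry quantifies lipid droplet accumulation (500–530 nm total intensity; droplet/cell object ratio) in oleic acid-fed (400 uM added) Drosophila S3 cells treated with a concentration series. 20 uM Triacsin C defined 100% inhibition.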
# [1] = measured here: cell number channel AC50, cells fed with added oleic acid
# [2] = measured here: lipid fluorescence (Fed channel) AC50, cells fed with added oleic acid
SMILES,cell number change [%],AC50 [1],AC50 [2]
COc1cc(/C=N/n2c(C)n[nH]c2=S)ccc1OCc1ccccc1,-50.6,"0.058 µM [falling, full curve]","6.51 µM [rising, partial curve]"
Cc1ccc(-n2cc(-c3ccccc3)c3c(NN4CCOCC4)ncnc32)cc1,–,–,"6.51 µM [rising, single point]"
CC1=C(C)C(=O)C(N2CCOCC2)=CC1=O,-21.8,–,"14.6 µM [falling, single point]"
CCC(C)NC(=O)NC(=O)CSc1nnc(-c2ccccc2F)n1C1CC1 (centres undefined),8.33,–,"0.0058 µM [rising, full curve, poor fit]"
Cc1ccc(-c2csc3ncnc(NCCN4CCOCC4)c23)cc1,-17.9,–,"0.231 µM [rising, single point]"
CCOC(=O)C1C(c2ccc(OC)cc2)N(C)OC1(O)C(F)(F)F (centres undefined),-36.6,–,–
CCOc1ccc(S(=O)(=O)Nc2ccc(C(=O)NCC3CCCO3)cc2)cc1 (centres undefined),10.8,–,"13 µM [rising, partial curve, poor fit]"
COc1ccc(Cl)cc1NS(=O)(=O)c1ccc(S(=O)(=O)N2CCCC2)cc1,–,"1.84 µM [falling, partial curve, poor fit]","6.51 µM [falling, single point]"
CN(C)c1ccc(C2CC(c3ccccc3)=Nc3nc(-c4ccccc4)cn32)cc1 (centres undefined),7.94,–,"0.231 µM [rising, full curve, poor fit]"
C#CCOCCOCCOCCNc1nc(N2CCN(C(=O)Cn3cc(CCCN=C(N)N)nn3)CC2)nc(N2CCN(C(=O)[C@H]([C@@H](C)O)n3cc(CCCCN)nn3)CC2)n1,-5.68,–,"29.1 µM [rising, partial curve]"
COc1ccc(NC(=O)/C(=C\c2ccccc2)NC(=O)c2ccco2)cc1,8.57,–,–
CCOc1ccc(C(C)=O)cc1COC(=O)c1cccnc1SC,39.2,–,–
Cc1ccc(C)c(NC(=O)C(=O)NCc2ccccn2)c1,3.1,–,–
CCN(Cc1nc(-c2ccc(OC)cc2)no1)C(=O)c1ccoc1C,13.9,–,–
COc1ccccc1N1CCN(C(=O)c2ccccc2Oc2ccccc2)CC1,-6.08,–,–
CCOc1ccc(N(CC(=O)Nc2cc(C)ccc2C)S(=O)(=O)c2c(C)[nH]c(=O)[nH]c2=O)cc1,-26.8,–,"29.1 µM [falling, single point]"
O=C(O)CN1C(=O)C2C3CC(C2C1=O)C1C(c2ccc(F)cc2)c2sc(=O)[nH]c2SC31 (centres undefined),-50.1,"16.4 µM [falling, single point]","18.4 µM [falling, single point]"

# Sorted by SMILES length (ascending): three of the compounds above
SMILES,cell number change [%],AC50 [1],AC50 [2]
CC1=C(C)C(=O)C(N2CCOCC2)=CC1=O,-21.8,–,"14.6 µM [falling, single point]"
CCOC(=O)C1C(c2ccc(OC)cc2)N(C)OC1(O)C(F)(F)F (centres undefined),-36.6,–,–
C#CCOCCOCCOCCNc1nc(N2CCN(C(=O)Cn3cc(CCCN=C(N)N)nn3)CC2)nc(N2CCN(C(=O)[C@H]([C@@H](C)O)n3cc(CCCCN)nn3)CC2)n1,-5.68,–,"29.1 µM [rising, partial curve]"

# Next part.

SMILES,cell number change [%],AC50 [1],AC50 [2]
CCCCC(=O)NN(C)c1nc(-c2ccccc2)nnc1C(F)(F)F,0.931,–,"29.1 µM [rising, single point]"
COc1ccc(-c2cc(C(F)(F)F)n3nc(C(=O)NCCCn4ccnc4)cc3n2)cc1,231,"29.1 µM [rising, single point]","16.4 µM [rising, partial curve]"
OCC1(Cc2ccc(Cl)cc2)CCN(CCCc2ccccc2)CC1,11.6,–,"0.00461 µM [falling, full curve, poor fit]"
O=C(NCc1ccco1)C1CCCN1C(=O)Nc1ccc(Br)cc1 (centres undefined),–,–,"29.1 µM [falling, single point]"
Nc1ccc(C(=O)N/N=C/c2cn(Cc3ccc(F)cc3)c3ccccc23)cc1,-15.8,–,–
COc1c(C)cccc1C(=O)Nc1ccc(N2CCOCC2)c(Cl)c1,–,"6.51 µM [rising, single point]","6.51 µM [rising, single point]"
CCC(=O)Nc1ccc(-c2ccc(N3CCCCC3)nn2)cc1,-18.9,–,"29.1 µM [falling, single point]"
CC(Sc1nc(-c2ccccc2)cc(C(F)(F)F)n1)C(=O)Nc1sc2c(c1C#N)CCC2 (centres undefined),-22.5,–,–
O=C(CSc1nnc2scc(-c3ccc(F)cc3)n12)NCc1ccco1,13.6,–,"29.1 µM [rising, single point]"
Cc1ccc(OC(=O)C(C)c2cccc(C(=O)c3ccccc3)c2)cc1 (centres undefined),7.25,–,"29.1 µM [rising, single point]"
CC1C(=O)C(C)C(c2cc(Cl)ccc2O)NC1c1cc(Cl)ccc1O (centres undefined),-73.8,"20.6 µM [falling, single point]",–
CCN(CC(=O)NCc1ccc(Cl)cc1)C(=O)CCc1ccccc1O,32.1,–,"29.1 µM [rising, single point]"
COc1ccc(-n2nc(C(=O)NCC(=O)NCc3ccco3)c3ccccc3c2=O)c(OC)c1,8.52,–,–
C[C@H](/C=C/[C@@]1(O)[C@H](C)C[C@H](O)CC1(C)C)O[C@@H]1O[C@H](CO)[C@@H](O)[C@H](O)[C@H]1O,–,"0.731 µM [rising, single point]",–
O=C(NCCCc1ccc(F)cc1)C1CCC(=O)N(CC2CCCCC2)C1 (centres undefined),14.7,–,"25.9 µM [falling, single point]"
Cc1cccc(NC(=O)CSc2ccc(-c3cccnc3)nn2)c1,5.78,–,"6.51 µM [rising, full curve]"
Cc1ccc(NS(=O)(=O)c2ccc(C(=O)N3CCN(c4ccccn4)CC3)cc2)cc1,-2.61,–,"2.91 µM [rising, partial curve]"
